Out of some 400,000 compounds screened, about 13,000 (3.2%) were called active. The shares of active, inactive and inconclusive entries below differ from those in the screen. Calls follow the shape of the dose curve; as a rule, active = well fitted cell-killing curve with a large enough effect; inconclusive = small, poorly fitted or top-dose-only effect, or effect the other way; inactive = flat fitted curve, though single readings scatter. Where the call is inconclusive, the potency comes from a doubtful curve fit.
test: qHTS assay for MDR1-selective chemotherapeutics: Primary screen using the drug-selected MDR subline cells KB-V1; settings: KB-V1 MDR cells viability, CellTiter-Glo, 72 h; activity change, negative = cytotoxicity: at 46.1 µM (top of the series); also: nearly all actives have a fitted effect of over 60% in size
Procedure, shortened: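 Cytotoxicity toward P-gp-expressing KB-V1 cells was determined as loss of CellTiter-Glo luminescence after 72 h at 37 degrees C. Compounds were tested in quantitative HTS format across a concentration range, with curves fitted to normalized data.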
% is scaled to controls: 0 for no effect and ±100 for the full control effect; potency is read from the fitted curve at half-maximal effect.

Compound | Potency | activity change, negative = cytotoxicity
O=C(N/N=C/c1ccc(O)c([N+](=O)[O-])c1)C(O)(c1ccccc1)c1ccccc1 | inconclusive: 0.82 µM [rising, full curve, poor fit] | –
COc1cccc(-n2c(CN3CCN(c4ccc(C)cc4)C(C)C3)nc3ccc([N+](=O)[O-])cc3c2=O)c1 (stereo unspecified) | active: 14.6 µM | –
CC(=O)Nc1ccc2nc3c(=O)n(C)c(=O)n(C)c3nc2c1 | – | inactive: 16.7%
COc1ccc(CNn2c(-c3cccs3)nc3ccccc3c2=O)cc1OC | active: 23.1 µM | –
CCOc1ccccc1N=c1oc2cc(O)ccc2cc1C(=O)NCC1CCCO1 (stereo unspecified) | inconclusive: 17.8 µM [cytotoxic, partial curve, poor fit] | –
CS(=O)(=O)N(CC(=O)N1CCc2ccccc2C1)c1ccc(Cl)cc1F | – | inactive: -6.19%
O=C1C2C3C=CC(CNS(=O)(=O)c4ccccc4)(O3)C2C(=O)N1c1ccc(Cl)cc1 (stereo unspecified) | inconclusive: 18.4 µM [cytotoxic, single point] | –
COc1ccc2cc(CNCCOCCOCCNCc3ccc4cc(OC)ccc4c3)ccc2c1 | active: 9.2 µM | –
CSc1ccccc1C(=O)N1CCc2ccc(NC(=O)c3ccccn3)cc2C1 | inconclusive: 23.1 µM [cytotoxic, partial curve, poor fit] | –
COc1ccc(/C=C2\SC(=O)N(CCNC(=O)CN3C(=O)NC4(CCCC4)C3=O)C2=O)cc1 | – | inactive: 0%
COc1cc(/C=C/C(=O)c2ccc(O)cc2)ccc1OCC#N | active: 18.4 µM | –
COC(=O)CC1NCCc2cc(OC)c(OC)cc21 (stereo unspecified) | inconclusive: 29.1 µM [rising, single point] | –
O=S(=O)(Nc1ccc2c(c1)OCCO2)c1cccc2cccnc12 | active: 16.4 µM | –
Cc1ccc2[nH]c(O)c(N=NC(=O)C3CC3c3ccccc3)c2c1Br (stereo unspecified) | inconclusive: 18.4 µM [cytotoxic, single point] | –
CC1=NN(c2ccc(Cl)cc2)C(=O)C1C(c1ccccc1O)c1c(C)[nH]n(-c2ccc(Cl)cc2)c1=O (stereo unspecified) | inconclusive: 29.1 µM [cytotoxic, single point] | –
Cc1ccc(NNC(=O)c2ccno2)cc1Cl | – | inactive: 2.06%
O=C(CSc1nnc(-c2ccco2)n1-c1ccccc1)N1CCOCC1 | inconclusive: 2.59 µM [rising, full curve] | –
COc1ccccc1NS(=O)(=O)c1cc(NC(=O)Nc2cccc(C)c2)ccc1N1CCCCC1 | inconclusive: 6.51 µM [cytotoxic, partial curve] | –
O=C(CSCc1ccccc1)N=Nc1c(O)[nH]c2ccccc12 | inconclusive: 23.1 µM [cytotoxic, partial curve] | –
CCCNC(=O)CC(NS(=O)(=O)c1ccc(NC(C)=O)cc1)C(C)C (stereo unspecified) | inconclusive: 16.4 µM [rising, partial curve] | –
NC(=O)C1CCN(CCS(=O)(=O)c2ccc(Cl)cc2)CC1 | – | inactive: 7.76%
Cc1ccc(C)n1-n1cnc2scc(-c3cccs3)c2c1=O | – | inactive: 15.3%
CCOC(=O)c1c(C)[nH]c(C)c1C(=O)CSc1nnnn1-c1ccccc1 | inconclusive: 16.4 µM [cytotoxic, single point] | –

A section of the results above, for reference:
Compound | Potency | activity change, negative = cytotoxicity
CC(=O)Nc1ccc2nc3c(=O)n(C)c(=O)n(C)c3nc2c1 | – | inactive: 16.7%
COc1ccc(CNn2c(-c3cccs3)nc3ccccc3c2=O)cc1OC | active: 23.1 µM | –
CCOc1ccccc1N=c1oc2cc(O)ccc2cc1C(=O)NCC1CCCO1 (stereo unspecified) | inconclusive: 17.8 µM [cytotoxic, partial curve, poor fit] | –
CS(=O)(=O)N(CC(=O)N1CCc2ccccc2C1)c1ccc(Cl)cc1F | – | inactive: -6.19%
O=C1C2C3C=CC(CNS(=O)(=O)c4ccccc4)(O3)C2C(=O)N1c1ccc(Cl)cc1 (stereo unspecified) | inconclusive: 18.4 µM [cytotoxic, single point] | –
COc1ccc2cc(CNCCOCCOCCNCc3ccc4cc(OC)ccc4c3)ccc2c1 | active: 9.2 µM | –
CSc1ccccc1C(=O)N1CCc2ccc(NC(=O)c3ccccn3)cc2C1 | inconclusive: 23.1 µM [cytotoxic, partial curve, poor fit] | –
COc1ccc(/C=C2\SC(=O)N(CCNC(=O)CN3C(=O)NC4(CCCC4)C3=O)C2=O)cc1 | – | inactive: 0%
COc1cc(/C=C/C(=O)c2ccc(O)cc2)ccc1OCC#N | active: 18.4 µM | –
COC(=O)CC1NCCc2cc(OC)c(OC)cc21 (stereo unspecified) | inconclusive: 29.1 µM [rising, single point] | –

More entries

Compound | Potency | activity change, negative = cytotoxicity
C/C(=C\c1ccccc1)C(=O)c1c(C)cc(C)[nH]c1=O | – | inactive: 0%
CC(Oc1cc2oc(=O)c3c(c2cc1Cl)CCCC3)C(=O)NCCN1CCOCC1 (stereo unspecified) | – | inactive: -12%
O=C(N[C@@H](Cc1ccccc1)C(=O)NC1CCCCC1)c1ccco1 | active: 13 µM | –
Cn1cc(-c2cc3n(n2)CCC(=O)N3CCCC(=O)Nc2ccc(F)cc2F)c2ccccc21 | – | inactive: -15.8%
Cc1cc(CC(C)C)n(-c2nc3ccccc3c(=O)n2OCc2ccccc2)n1 | active: 9.2 µM | –
Nc1nc(NCc2ccco2)nc(N2CCCCCC2)c1[N+](=O)[O-] | inconclusive: 6.51 µM [cytotoxic, partial curve] | –
COc1cc(CNc2ncnc3c2ncn3[C@H]2CN(Cc3cccc(C(F)(F)F)c3)C[C@@H](COC(C)=O)O2)cc(OC)c1OC | – | inactive: 0.388%
CCc1ccc(C(=O)Cn2cnc3cc([N+](=O)[O-])ccc3c2=O)cc1 | – | inactive: -9.03%
COc1cccc(C2C(C(=O)c3sc(C)nc3C)=C(O)C(=O)N2CCN2CCOCC2)c1 (stereo unspecified) | inconclusive: 8.2 µM [rising, partial curve, poor fit] | –
O=S(=O)(NCCc1ccc(F)cc1)c1cccc2cccnc12 | inconclusive: 20.6 µM [cytotoxic, single point] | –
CCCSc1ccc([C@H]2N[C@@](CC(C)C)(C(=O)OC)[C@H]3C(=O)N(CC)C(=O)[C@@H]23)cc1 | inconclusive: 29.1 µM [cytotoxic, single point] | –
COCCCNC(=S)NCCNc1nc2cc(C)cc(C)c2cc1C#N | inconclusive: 16.4 µM [cytotoxic, partial curve] | –
NC(=O)C1CCN(C(=O)COc2ccc(S(=O)(=O)NC3CCCC3)cc2)CC1 | inconclusive: 16.4 µM [rising, partial curve, poor fit] | –
CC(C)[C@@H]1Cc2[nH][nH]c(=O)c2[C@H](C(C)C)O1 | inconclusive: 29.1 µM [rising, single point] | –
CC[n+]1c(/C=C2\C=C(C)CC(C)(C)C2)sc2ccccc21 | – | inactive: -1.62%
CCOC(=O)[C@]12CCCC=C1N(Cc1ccc3c(c1)OCO3)C(=O)[C@H](CC(=O)NCCCCc1ccccc1)C2 | inconclusive: 29.1 µM [cytotoxic, single point] | –
CNc1ccc(-c2ccccc2CO)cn1 | – | inactive: 21.3%
CC(C)C(NC(=O)c1ccc(F)cc1)C(=O)N1CCC1 (stereo unspecified) | inconclusive: 29.1 µM [rising, single point] | –
Cc1cc2nc(-c3ccc(Br)cc3)cc(C(F)(F)F)n2n1 | inconclusive: 3.66 µM [rising, partial curve, poor fit] | –
CCc1nc2c(sc3nc4c(cc32)COC(C)(C)C4)c(=O)n1Cc1ccco1 | active: 11.6 µM | –
COc1cc(-c2c(C#N)c(N)nc3c2CCCC3)ccc1O | – | inactive: -20.1%
COc1ccc2nc3oc(C(=O)N4CCN(c5ccccc5F)CC4)cc3cc2c1 | inconclusive: 23.1 µM [cytotoxic, single point] | –
COc1c(S(=O)(=O)N2CCCCC2)ccc2c(S(=O)(=O)N3CCCCC3)cccc12 | inconclusive: 14.6 µM [cytotoxic, partial curve, poor fit] | –

From PubChem BioAssay AID1347076 (National Center for Advancing Translational Sciences (NCATS), 2019)
